Experimental data published in paper PMC7468131.
These are yes or no findings as the source states them, for the method shown. In cells and extracts the contact can be indirect. Sequences can lack the tags named with a protein.

Amino acid sequences for entries named in this document (tags omitted). A change or cut given only in a name is not applied to a line headed by its entry. Chains listed by the source or under a name are the forms on record and can include a tag or linker. Residues count along the entry.
UniProt Q13586: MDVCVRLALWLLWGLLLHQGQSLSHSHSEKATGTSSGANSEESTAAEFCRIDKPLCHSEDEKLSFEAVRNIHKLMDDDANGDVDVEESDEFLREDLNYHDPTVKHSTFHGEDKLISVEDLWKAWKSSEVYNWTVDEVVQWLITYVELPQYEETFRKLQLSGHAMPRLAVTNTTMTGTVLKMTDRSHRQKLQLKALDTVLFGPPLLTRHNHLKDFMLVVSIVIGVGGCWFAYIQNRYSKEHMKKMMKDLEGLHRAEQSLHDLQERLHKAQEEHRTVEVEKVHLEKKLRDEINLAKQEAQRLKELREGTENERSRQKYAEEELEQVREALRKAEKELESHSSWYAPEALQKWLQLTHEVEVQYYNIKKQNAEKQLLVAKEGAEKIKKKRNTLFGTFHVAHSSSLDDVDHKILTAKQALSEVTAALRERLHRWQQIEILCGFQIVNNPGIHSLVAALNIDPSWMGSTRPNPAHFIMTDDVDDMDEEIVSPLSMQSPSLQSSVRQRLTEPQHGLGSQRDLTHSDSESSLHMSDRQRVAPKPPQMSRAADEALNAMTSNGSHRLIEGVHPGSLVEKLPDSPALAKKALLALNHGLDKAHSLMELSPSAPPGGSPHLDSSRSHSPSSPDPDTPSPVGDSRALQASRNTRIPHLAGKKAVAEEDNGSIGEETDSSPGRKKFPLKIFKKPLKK
GST-tagged STIM1 fragment a.a. 1-249: residues 23-249 of Q13586
GST-tagged STIM1 fragment a.a. 250-400: residues 250-400 of Q13586
GST-tagged STIM1 fragment a.a. 324-448: residues 324-448 of Q13586
GST-tagged STIM1 fragment a.a. 400-600: residues 400-600 of Q13586
GST-tagged STIM1 fragment a.a. 600-685: residues 600-685 of Q13586

Tests used:
Experiment in all cases: pull-down; 20 ug of GST-tagged fragments of STIM1 (from E. coli, on glutathione beads) as bait, incubated 6 h with lysates of transfected HEK293T cells; binding buffer 0.5% Igepal CA-630, 20 mM Tris-HCl, 100 mM NaCl, 2 mM EDTA, 10% glycerol, pH 7.5; only the target purified
[1] = target: GST-tagged STIM1 fragment a.a. 250-400 (UniProt Q13586)
[2] = target: GST-tagged STIM1 fragment a.a. 400-600 (UniProt Q13586)
[3] = target: GST-tagged STIM1 fragment a.a. 324-448 (UniProt Q13586)
[4] = target: GST-tagged STIM1 fragment a.a. 600-685 (UniProt Q13586)
[5] = target: GST-tagged STIM1 fragment a.a. 1-249 (UniProt Q13586)

Measured: binding

B1: FLAG-tagged E-Syt1 (protein, UniProt Q9BSJ8 1-1104)
chain: MERSPGEGPSPSPMDQPSAPSDPTDQPPAAHAKPDPGSGGQPAGPGAAGEALAVLTSFGRRLLVLIPVYLAGAVGLSVGFVLFGLALYLGWRRVRDEKERSLRAARQLLDDEEQLTAKTLYMSHRELPAWVSFPDVEKAEWLNKIVAQVWPFLGQYMEKLLAETVAPAVRGSNPHLQTFTFTRVELGEKPLRIIGVKVHPGQRKEQILLDLNISYVGDVQIDVEVKKYFCKAGVKGMQLHGVLRVILEPLIGDLPFVGAVSMFFIRRPTLDINWTGMTNLLDIPGLSSLSDTMIMDSIAAFLVLPNRLLVPLVPDLQDVAQLRSPLPRGIIRIHLLAARGLSSKDKYVKGLIEGKSDPYALVRLGTQTFCSRVIDEELNPQWGETYEVMVHEVPGQEIEVEVFDKDPDKDDFLGRMKLDVGKVLQASVLDDWFPLQGGQGQVHLRLEWLSLLSDAEKLEQVLQWNWGVSSRPDPPSAAILVVYLDRAQDLPLKKGNKEPNPMVQLSIQDVTQESKAVYSTNCPVWEEAFRFFLQDPQSQELDVQVKDDSRALTLGALTLPLARLLTAPELILDQWFQLSSSGPNSRLYMKLVMRILYLDSSEICFPTVPGCPGAWDVDSENPQRGSSVDAPPRPCHTTPDSQFGTEHVLRIHVLEAQDLIAKDRFLGGLVKGKSDPYVKLKLAGRSFRSHVVREDLNPRWNEVFEVIVTSVPGQELEVEVFDKDLDKDDFLGRCKVRLTTVLNSGFLDEWLTLEDVPSGRLHLRLERLTPRPTAAELEEVLQVNSLIQTQKSAELAAALLSIYMERAEDLPLRKGTKHLSPYATLTVGDSSHKTKTISQTSAPVWDESASFLIRKPHTESLELQVRGEGTGVLGSLSLPLSELLVADQLCLDRWFTLSSGQGQVLLRAQLGILVSQHSGVEAHSHSYSHSSSSLSEEPELSGGPPHITSSAPELRQRLTHVDSPLEAPAGPLGQVKLTLWYYSEERKLVSIVHGCRSLRQNGRDPPDPYVSLLLLPDKNRGTKRRTSQKKRTLSPEFNERFEWELPLDEAQRRKLDVSVKSNSSFMSRERELLGKVQLDLAETDLSQGVARWYDLMDNKDKGSS
no binding: all assays above
